Among the data in the supplement of paper PMC9744312 are cell viability values, retold here.

By cell viability is commonly meant a read-out of living cells in per cent, often relative to untreated cells.

Structures can show the parent of a compound that is named as a salt. The list shows a part of the results. The data scatter; read single values as rough.

In the assay the test system is Peyronie's disease tunica albuginea primary fibroblasts. Nature of the assay: cell viability (DRAQ5 nuclear stain) relative to TGF-beta1-only control; higher = more viable cells. The settings on record: 10 µM; TGF-beta1 10 ng/mL; 72 h.
Take `COC(=O)N/N=C/c1c[n+]([O-])c2ccccc2[n+]1[O-]` [Carbadox]: the cell viability was 112%.

Consider `CC1=NN(c2ccc(C)c(C)c2)C(=O)/C1=N\Nc1cccc(-c2cccc(C(=O)O)c2)c1O` [Eltrombopag Olamine], for which the cell viability came to 78.5%. Then `CC1=NN(c2ccc(C)c(C)c2)C(=O)/C1=N\Nc1cccc(-c2cccc(C(=O)O)c2)c1O` [Eltrombopag], with 86.7%; and `CCn1c(=O)c2c(nc(/C=C/c3ccc(OC)c(OC)c3)n2C)n(CC)c1=O` [Istradefylline], with 104%.

As for `CC(C(O)c1ccc(O)cc1)N1CCC(Cc2ccccc2)CC1` (configuration not stated) [Ifenprodil Tartrate], the cell viability was determined as 91%.

On to `C[C@@H]1C/C=C/C=C/C=C/C=C/[C@H](O[C@@H]2O[C@H](C)[C@@H](O)[C@H](N)[C@@H]2O)C[C@@H]2O[C@](O)(C[C@@H](O)C[C@H]3O[C@@H]3/C=C/C(=O)O1)C[C@H](O)[C@H]2C(=O)O` [Natamycin], for which the cell viability stood at 93.6%. The same measure for `Nc1nc(=O)n([C@@H]2CS[C@H](CO)O2)cc1F` [Emtricitabine]: 92.9%; for `COc1ccc(Cl)cc1C(=O)NCCc1ccc(S(=O)(=O)NC(=O)NC2CCCCC2)cc1` [Glyburide (Glibenclamide)]: 101%; for `COC(=O)N[C@@H](C)CNc1nccc(-c2cn(C(C)C)nc2-c2cc(Cl)cc(NS(C)(=O)=O)c2F)n1` [Encorafenib (LGX818)]: 67.8%. Take `CC[C@@H]1C(=O)N(C)c2cnc(Nc3ccc(C(=O)N[C@H]4CC[C@H](N5CCN(CC6CC6)CC5)CC4)cc3OC)nc2N1C(C)C` [Volasertib (BI 6727)]: the cell viability came out at 50.9%. The same measure for `CC#C[C@]1(O)CC[C@H]2[C@@H]3CCC4=CC(=O)CCC4=C3[C@@H](c3ccc(N(C)C)cc3)C[C@@]21C` [Mifepristone]: 87%; for `[Cl][Mn][Cl]` [Manganese chloride]: 89.2%; for `Cc1nc(C(=O)NCC(=O)O)c(O)c2ccc(Oc3ccccc3)cc12` [Roxadustat (FG-4592)]: 87%. With `CCCCCCNC(=O)n1cc(F)c(=O)[nH]c1=O` [Carmofur], the cell viability amounted to 64.3%. `CCC[C@@H]1C[C@@H](C(=O)N[C@@H]([C@H]2O[C@H](SC)[C@H](OP(=O)(O)O)[C@@H](O)[C@H]2O)[C@H](C)Cl)N(C)C1` [Clindamycin Phosphate]: the cell viability came out at 92.2%. Consider `N[C@H]1CONC1=O` [L-Cycloserine], for which the cell viability worked out at 93.7%. Take `CNC(=O)c1ccc(N2C(=S)N(c3ccc(C#N)c(C(F)(F)F)c3)C(=O)C2(C)C)cc1F` [Enzalutamide (MDV3100)]: the cell viability was determined as 57.6%.

`COc1cc2nc(N3CCN(C(=O)C4COc5ccccc5O4)CC3)nc(N)c2cc1OC` (configuration not stated) [Doxazosin Mesylate]: the cell viability came out at 86.5%.

Regarding `CCN(CCCCOC(=O)c1ccc(OC)c(OC)c1)C(C)Cc1ccc(OC)cc1` (configuration not stated) [Mebeverine Hydrochloride], the cell viability was determined as 85.4%. Then `CCN(CC)C(=O)C1(c2ccccc2)CC1CN` (configuration not stated) [Milnacipran HCl], with 95.1%; and `Cc1cc(C(C)(C)C)cc(C)c1CC1=NCCN1` [Xylometazoline HCl], with 83.2%; and `CCN(CC)CCOCCOC(=O)C1(c2ccccc2)CCCC1` [Pentoxyverine Citrate], with 93%. `CC#CCn1c(N2CCC[C@@H](N)C2)nc2c1c(=O)n(Cc1nc(C)c3ccccc3n1)c(=O)n2C` [Linagliptin]: the cell viability turned out to be 88.2%.

In the case of `NC[C@H]1O[C@H](O[C@H]2[C@H](O)[C@@H](O[C@H]3O[C@H](CO)[C@@H](O)[C@H](N)[C@H]3O)[C@H](N)C[C@@H]2N)[C@H](N)C[C@@H]1O` [Tobramycin sulfate], the cell viability was found to be 82.3%. The same measure for `NC[C@H]1O[C@H](O[C@H]2[C@H](O)[C@@H](O[C@H]3O[C@H](CO)[C@@H](O)[C@H](N)[C@H]3O)[C@H](N)C[C@@H]2N)[C@H](N)C[C@@H]1O` [Tobramycin]: 97.6%.

For the compound `O=C(/C=C/c1cccc(S(=O)(=O)Nc2ccccc2)c1)NO` [Belinostat (PXD101)], the cell viability was 31.3%. As to `CC(C)(C)c1cc(NC(=O)Nc2ccc(-c3cn4c(n3)sc3cc(OCCN5CCOCC5)ccc34)cc2)no1` [Quizartinib (AC220)], the cell viability was found to be 64.7%. Then `CCOC(=O)/C=C(C)/C=C/C=C(C)/C=C/c1c(C)cc(OC)c(C)c1C` [Etretinate], with 73.1%; and `CN(C)C(=N)NC(=N)N` [Metformin HCl], with 103%; and `NCCCCCC(=O)O` [(6-)ε-?Aminocaproic acid], with 94.3%. For the compound `CNCCc1ccccn1` [Betahistine mesylate], the cell viability is 89.1%. For the compound `CNCCc1ccccn1` [Betahistine 2HCl], the cell viability was found to be 92.1%. The same measure for `CNCCc1ccccn1` [Betahistine]: 86.3%; for `Nc1nc2c(ncn2COC(CO)CO)c(=O)[nH]1` [Ganciclovir]: 89.4%; for `Clc1cccc(Cl)c1NC1=NCCN1` [Clonidine HCl]: 95.3%. Then `C[C@]12C=CC(=O)N[C@@H]1CC[C@@H]1[C@@H]2CC[C@]2(C)[C@@H](C(=O)Nc3cc(C(F)(F)F)ccc3C(F)(F)F)CC[C@@H]12` [Dutasteride], with 75%. In the case of `CO[C@H]1/C=C/O[C@@]2(C)Oc3c(C)c(O)c4c(O)c(c5c(nc6cc(C)ccn65)c4c3C2=O)NC(=O)/C(C)=C\C=C\[C@H](C)[C@H](O)[C@@H](C)[C@@H](O)[C@@H](C)[C@H](OC(C)=O)[C@@H]1C` [Rifaximin], the cell viability amounted to 90.3%. As to `CCCCCOc1ccccc1/C(=C\SC)n1ccnc1` [Neticonazole Hydrochloride], the cell viability is 78.2%. Turning to `Cc1cnc(Nc2ccc(OCCN3CCCC3)cc2)nc1Nc1cccc(S(=O)(=O)NC(C)(C)C)c1`, the cell viability is 28.4%. The same measure for `Cc1cc(O)c(C(=O)N[C@@H](C(=O)N[C@@H]2C(=O)N3C(C(=O)O)=C(CSc4nnnn4C)CS[C@H]23)c2ccc(O)cc2)cn1` [Cefpiramide sodium]: 98.8%. The same measure for `CCCNC(=O)NS(=O)(=O)c1ccc(Cl)cc1` [Chlorpropamide]: 97%; for `COc1ccc(Cl)c(Nc2nc3ccccc3nc2NS(=O)(=O)c2cccc(NC(=O)C(C)(C)N)c2)c1` [Pilaralisib (XL147)]: 74.1%. The same measure for `CC(=O)O[C@]1(C(C)=O)CC[C@H]2[C@@H]3C=C(Cl)C4=CC(=O)CC[C@]4(C)[C@H]3CC[C@@]21C` [Chlormadinone acetate]: 101%; for `CCS(=O)(=O)N1CC(CC#N)(n2cc(-c3ncnc4[nH]ccc34)cn2)C1`: 83.6%. In the case of `Clc1ccc2c(c1)CCc1cccnc1C2=C1CCNCC1` [Desloratadine], the cell viability is 86.9%. Turning to `O=C1NCC2(CCN(CCc3ccccc3)CC2)O1` [Fenspiride HCl], the cell viability turned out to be 84.9%.

`CC1(C)OC[C@@H](COC(=O)CCc2ccc(OC[C@@H](O)CNCCNC(=O)N3CCOCC3)cc2)O1` [Landiolol hydrochloride]: the cell viability was 96.6%. As for `Cc1[nH]cnc1CN1CCc2c(c3ccccc3n2C)C1=O` [Alosetron Hydrochloride], the cell viability worked out at 99.4%. Then `O=C(c1ccc(F)cc1)C1CCN(CCn2c(=O)[nH]c3ccccc3c2=O)CC1` [Ketanserin], with 96.9%; and `COC(=O)C1=C(C)NC(C)=C(C(=O)OC(C)(C)CN(C)CCC(c2ccccc2)c2ccccc2)C1c1cccc([N+](=O)[O-])c1` (configuration not stated) [Lercanidipine hydrochloride], with 74%. The same measure for `O=c1[nH]c2ccccc2n1CCN1CCN(c2cccc(C(F)(F)F)c2)CC1` [Flibanserin]: 86.6%. As for `c1ccc(-c2ccc(C(c3ccccc3)n3ccnc3)cc2)cc1` (configuration not stated) [Bifonazole], the cell viability came to 96.4%. `Oc1c(Cl)cc(Cl)c2cccnc12` [Chloroxine]: the cell viability came out at 79.2%. Then `O=C1CC[C@@H](C(=O)N2CSC[C@H]2C(=O)O)N1` [Pidotimod], with 85.6%. Consider `CN(C)CCC(c1ccc(Br)cc1)c1ccccn1` (configuration not stated) [Brompheniramine hydrogen maleate], for which the cell viability was 88.6%. Then `COc1cc(Nc2c(C#N)cnc3cc(OCCCN4CCN(C)CC4)c(OC)cc23)c(Cl)cc1Cl` [Bosutinib (SKI-606)], with 30.2%. The same measure for `COc1cccc2c1C(=O)c1c(O)c3c(c(O)c1C2=O)CC(O)(C(=O)CO)CC3OC1CC(N)C(O)C(C)O1` (configuration not stated) [Doxorubicin (Adriamycin) HCl]: 43.6%; for `CCCCCCCCCC(=O)N[C@@H](Cc1c[nH]c2ccccc12)C(=O)N[C@H](CC(N)=O)C(=O)N[C@@H](CC(=O)O)C(=O)N[C@@H]1C(=O)NCC(=O)N[C@@H](CCCN)C(=O)N[C@@H](CC(=O)O)C(=O)N[C@H](C)C(=O)N[C@@H](CC(=O)O)C(=O)NCC(=O)N[C@H](CO)C(=O)N[C@@H]([C@H](C)CC(=O)O)C(=O)N[C@@H](CC(=O)c2ccccc2N)C(=O)O[C@@H]1C` [Daptomycin]: 83.8%; for `CCC1(c2ccccc2)C(=O)NCNC1=O` [Primidone]: 102%. Then `CCCCc1oc2ccc(NS(C)(=O)=O)cc2c1C(=O)c1ccc(OCCCN(CCCC)CCCC)cc1` [Dronedarone HCl], with 84.9%; and `Nc1ncnc2c1ncn2[C@@H]1O[C@H](CO)[C@@H](O)[C@@H]1O` [Vidarabine monohydrate], with 85.3%. On to `Nc1ncnc2c1ncn2[C@@H]1O[C@H](CO)[C@@H](O)[C@@H]1O` [Vidarabine], for which the cell viability amounted to 90.6%. For the compound `CCCCC(CC)COC(=O)CC(C(=O)OCC(CC)CCCC)S(=O)(=O)O` (configuration not stated) [Docusate Sodium], the cell viability was found to be 91.6%. In the case of `CC[C@H](C)[C@H](N)C(=O)O` [isoleucine], the cell viability was determined as 97.6%. The same measure for `NC(=O)[C@@H]1CSSCCC(=O)N[C@@H](CCCCN=C(N)N)C(=O)NCC(=O)N[C@@H](CC(=O)O)C(=O)N[C@@H](Cc2c[nH]c3ccccc23)C(=O)N2CCC[C@H]2C(=O)N1` [Eptifibatide Acetate]: 99.9%. The same measure for `C[C@@](Cc1ccc(O)c(O)c1)(NN)C(=O)O` [Carbidopa]: 83.2%.

For `CCOc1nc2cccc(C(=O)O)c2n1Cc1ccc(-c2ccccc2-c2nnn[nH]2)cc1` [Candesartan], the cell viability was 98.2%.
